Assay results taken from PubChem BioAssay AID1671190 (National Center for Advancing Translational Sciences (NCATS), 2021).
“And” between values parts separate entries of the source, which are not always exact repeats. Equal values may be shown once. Out of some 580,000 compounds screened, about 6,100 (1.1%) were called active. The shares of active, inactive and inconclusive entries below differ from those in the screen. Calls come from the whole dose curve; as a rule, active = well fitted inhibition curve with a large enough effect; inconclusive = small, poorly fitted or top-dose-only effect, or another doubt; inactive = no such curve, though single readings can be large or run the other way. A potency beside an inconclusive call is a rough fit, not a confirmed value.

Sequences of proteins named here, by UniProt entry; tags and fusion partners are left off. A change or cut given only in a name is not applied to a line headed by its entry.
UniProt P18054: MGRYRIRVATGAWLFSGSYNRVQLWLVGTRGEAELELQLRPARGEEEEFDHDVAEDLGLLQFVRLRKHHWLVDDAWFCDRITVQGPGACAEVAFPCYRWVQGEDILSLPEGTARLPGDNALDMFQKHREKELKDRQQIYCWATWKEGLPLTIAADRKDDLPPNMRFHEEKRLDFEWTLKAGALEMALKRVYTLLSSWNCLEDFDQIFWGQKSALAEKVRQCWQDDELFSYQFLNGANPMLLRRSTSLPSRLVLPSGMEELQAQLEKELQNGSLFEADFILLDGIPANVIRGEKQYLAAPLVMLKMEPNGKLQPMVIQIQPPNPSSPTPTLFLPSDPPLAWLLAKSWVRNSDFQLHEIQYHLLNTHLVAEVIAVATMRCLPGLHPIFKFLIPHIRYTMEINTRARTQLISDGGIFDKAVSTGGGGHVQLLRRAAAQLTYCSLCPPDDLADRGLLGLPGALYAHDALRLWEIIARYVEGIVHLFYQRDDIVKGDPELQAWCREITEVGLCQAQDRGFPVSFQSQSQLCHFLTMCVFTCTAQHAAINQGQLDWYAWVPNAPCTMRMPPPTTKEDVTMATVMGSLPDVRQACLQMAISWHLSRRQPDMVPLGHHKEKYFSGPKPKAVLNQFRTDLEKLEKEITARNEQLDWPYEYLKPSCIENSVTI

These compounds were tested against Polyunsaturated fatty acid lipoxygenase ALOX12 (Homo sapiens) (UniProt P18054) (assay: Primary qHTS assay for inhibitors of human arachidonate 12S-lipoxygenase (ALOX12): Round 2). Details: purified 12hLO, xylenol orange hydroperoxide absorbance; activity change, negative = inhibition: at 108 µM (top of the series) unless noted.
From the text: Assay Provider: Theodore R. Holman Ph.D. University of California, Santa Cruz, California Human lipoxygenase 12hLO is a member of the closely related lipoxygenase family of enzymes which catalyze the site-specific oxidation of arachidonic acid to various hormone precursor molecules and as such is a candidate for drug development in a variety of disease areas, such as cancer and inflammation. Inhibition of 12hLO activity was screened by utilizing arachidonic acid as a substrate. The extent of hydroperoxide product formation was measured by a secondary chromogenic reaction in which xylenol orange (XO, Sigma-Aldrich, cat. number 39,818-7) reacts with the ferric ions produced from the reaction between the hydroperoxide and ferrous ions. The Fe (III)-XO complex is characterized with red-shifted absorbance at 560 nm. A purified preparation of human 12hLO was supplied by Dr. Holman laboratory, University of California, Santa Cruz.
PROTOCOL TABLE SEQUENCE No. (e.g., 1, 2, 3, etc.); […] (e.g., Cells, Incubation, Reagent, etc.); VALUE; DESCRIPTION 1; Enzyme; 3 uL; 150 nM 12hLO enzyme solution dispensed in 1536-well Greiner black, clear bottom plates. 2; Compound; 23 nL; compounds and controls were added. 3; Incubate; 15 min; room temperature. 4; Substrate; 1 uL; 40 uM arachidonic acid (final concentration). 5; Incubate; 30 min; room temperature. 6; Reagent; 4 uL; Fe-XO solution was added to each well. 7; Incubation; 30 min; room temperature 8; Detector; absorbance; Read 1 at 405 nm absorbance using ViewLux (Perkin-Elmer) CCD imager. 9; Detector; absorbance; Read 2 at 573 nm absorbance using ViewLux (Perkin-Elmer) CCD imager. NOTES (numbers refer to sequence above) 1; 150 nM 12hLO (final concentration) in buffer solution (25 mM Hepes, 0.01% Triton X-100, pH 7.0) was dispensed in columns 1, 2, 5-48. Column 1 is neutral (100% activity). Buffer only was dispensed in columns 3 and 4 as no enzyme negative controls. The plates were covered with metal lids with gas-exchange holes. 2; Compounds were pin transferred via a Kalypsys Pin Tool (Wako USA) in column 5-48. Control compound was transferred in column 2, titration of nordihydroguaiaretic acid (NDGA, Sigma-Aldrich, N5023) with top concentration of 20 mM in DMSO then 1:3 dilution in duplicate. Dilution factor of 23 nL into 4 uL final assay volume. 3; Covered assay plates were incubated for 15 min at room temperature. 4; Substrate was added to start the reaction; 40 uM arachidonic acid (Sigma-Aldrich, St. Louis, MO) was dispensed throughout the plate. 6; Chromogenic detection reagent solution (divalent iron/xylenol orange, Fe-XO) was added to each well: 200 uM xylenol orange, 300 uM ferrous ammonium sulfate prepared freshly in 50 mM sulfuric acid. 8, 9; Two absorbance readouts were obtained at 405 nm and at 573 nm using a ViewLux high-throughput CCD plate imager (Perkin-Elmer). The 573 to 405 (Read 2 / Read 1) absorbance ratio was used to compute reaction progress.
% is set by controls: 0 for no effect and ±100 for the full control effect; potency is the fitted concentration of half-maximal effect.

Compound | Potency | activity change, negative = inhibition
CCO[C@@H]1OC(C(=O)NCc2nc3ccccc3[nH]2)=C[C@H](C(C)(C)C)[C@H]1CCCO | inconclusive: 100 µM [inhibitor, single point] | –
Cc1ccc(C(=O)Nc2c(N3CCCC3)c3ccccc3oc2=O)cc1 | inconclusive: 0.282 µM [inhibitor, full curve, poor fit] | –
CCCC1OC2C[C@@H]3[C@H]4CCC5=CC(=O)C=C[C@]5(C)[C@H]4C(O)C[C@]3(C)[C@]2(C(=O)CO)O1 (some centres undefined) | – | inactive: -36% [at 57.4 µM]
CNC(=O)CCn1ncc2cc(OCc3ccccc3-c3ccc(OC)cc3C)ccc21 | inconclusive: 70.8 µM [inhibitor, partial curve, poor fit] | –
CCOc1cccc(/C(O)=C2\C(=O)C(=O)N(CCOC)C2c2cccnc2)c1 (centres undefined) | inconclusive: 12.6 µM [inhibitor, partial curve, poor fit] | –
COc1ccc(C2=C(C)C(N3CCC(C(=O)NC4CCCCC4)CC3)=NS2(=O)=O)cc1 | inconclusive: 50.1 µM [inhibitor, partial curve, poor fit] | –
Cn1nc(C(=O)N2CCN(S(=O)(=O)c3ccc(Cl)cc3)CC2)c2ccccc2c1=O | – | inactive: -29.4%
O=C(Cc1cnc[nH]c1=O)N1CCC2(CC1)[C@H](O)C[C@@H]2OCCO | inconclusive: 89.1 µM [inhibitor, partial curve, poor fit] | –
CCOC(=O)c1ccc(NC(=O)C2=C(C)Nc3nc(SCc4ccc(Cl)cc4)nn3C2c2ccc(OC)cc2)cc1 (centres undefined) | inconclusive: 112 µM [inhibitor, partial curve, poor fit] | –
O=C(Nc1ccc2c(c1)Cc1cc([N+](=O)[O-])ccc1-2)C(F)(F)F | – | inconclusive: -36.5% [inhibitor]
COc1ccc(C(=O)ON=C2CCCCC2)cc1Br | – | inactive: 8.01%
O=C(CCCCCn1c(SCc2ccncc2)nc2ccccc2c1=O)NCc1ccco1 | inconclusive: 25.1 µM [inhibitor, full curve, poor fit] | –
CCCCn1c(N)c(N(CCOC)C(=O)Cn2c(=O)cnc3ccccc32)c(=O)[nH]c1=O | inconclusive: 112 µM [inhibitor, partial curve, poor fit] | –
CC(=O)Oc1ccc(/C=N\NC(=O)c2cc3c(ccc4ccccc43)o2)cc1 | inconclusive: 112 µM [inhibitor, single point] | –
CCOc1ccc(N2C(=O)CC(NC3CCN(C(=O)c4ccc(F)cc4)CC3)C2=O)cc1 (centres undefined) | inconclusive: 39.8 µM [inhibitor, partial curve, poor fit] | –
CNC(=O)NC(=O)CSc1nc(NC2CC2)c2ccccc2n1 | inconclusive: 50.1 µM [inhibitor, partial curve, poor fit] | –
CC(=O)N1CCN(C(=O)c2ccc(OC3CCN(CCc4ccccc4)CC3)cc2)CC1 | inconclusive: 56.2 µM [inhibitor, partial curve, poor fit] | –
CN(C)S(=O)(=O)c1ccc2nnn(OCC(=O)NC34CC5CC(CC(C5)C3)C4)c2c1 | – | inactive: -12%
Cc1cc(C)n2ncc(C(=O)NCc3cc4n(n3)CCN(C(=O)N(C)C)C4)c2n1 | – | inactive: 12.7%
CCOC(=O)C1(C)CCCN(C(=O)c2c(F)cccc2F)C1 (centres undefined) | inconclusive: 89.1 µM [inhibitor, partial curve, poor fit] | –
O=C(NCc1ccc(Cl)cc1)c1c[nH]c2cccnc12 | – | inactive: -1.05% [at 12.5 µM]
CN1CC(=O)N(C2CCNCC2)Cc2c(NCCO)ncnc21 | inconclusive: 20 µM [inhibitor, full curve, poor fit] | –

Compound | Potency | activity change, negative = inhibition
CC1(C)CC(=O)c2sc(NS(=O)(=O)c3ccc(Br)cc3)nc2C1 | inconclusive: 50.1 µM [inhibitor, partial curve, poor fit] | –
CN(CC(=O)Nc1cccc(F)c1)C(=O)c1ccc(N2C(=O)c3ccccc3C2=O)cc1 | inconclusive: 100 µM [inhibitor, single point] | –
Cc1ccccc1-c1ccc2ncnc(NCc3cccs3)c2c1 | inconclusive: 20 µM [inhibitor, partial curve, poor fit] | –
NS(=O)(=O)c1ccc(Nc2nc(-c3cccnc3)cs2)cc1 | inconclusive: 1.78 µM [inhibitor, partial curve, poor fit] | –
CNc1oc(C)nc1S(=O)(=O)c1ccc(C)cc1 | inconclusive: 50.1 µM [inhibitor, partial curve, poor fit] | –
COc1cc2c(C(=O)NCCCOC(C)C)cn(CC(C)C)c(=O)c2cc1OC | inconclusive: 4.47 µM [inhibitor, full curve, poor fit] | –
CC(C)C[C@H]1CN([C@@H](Cc2ccc(O)cc2)CN2CCC[C@H]2CN2C(=O)C(=O)NC[C@@H]2Cc2ccc(O)cc2)C(=O)C(=O)N1CCc1ccccc1 | inconclusive: 100 µM [inhibitor, single point] | –
COC[C@@H]1CN(S(=O)(=O)c2ccccc2)C[C@H]1c1nc(C)no1 | – | inactive: 31.1%
CCN1C(=NCCCCO)N[C@@H](c2cccc(C(F)(F)F)c2)C(C(=O)OC)=C1C | inconclusive: 89.1 µM [inhibitor, partial curve, poor fit] | –
Cc1noc2c(NC3CCC(O)CC3)cc(-c3ccc(Cl)cc3)nc12 (centres undefined) | inconclusive: 70.8 µM [inhibitor, partial curve, poor fit] | –
CCN1CCN(c2ncnc3sc4c(c23)CCC(C)C4)CC1 (centres undefined) | inconclusive: 3.98 µM [inhibitor, full curve, poor fit] | –
CCc1ccc(/C=C/C(=O)c2cc(Br)ccc(=O)c2O)cc1 | inconclusive: 44.7 µM [inhibitor, partial curve, poor fit] | –
COc1ccc(C)cc1-n1nnnc1SCn1nnc2ccccc2c1=O | inconclusive: 631 nM [inhibitor, full curve, poor fit] and inconclusive: 56.2 µM [inhibitor, partial curve, poor fit] | –
Fc1ccc(F)c(NC(=S)NCCc2ccccc2)c1 | – | inactive: -29.1%
Cc1ccc2nc(NC(=O)c3ccc(NS(=O)(=O)c4cccs4)cc3)sc2c1 | inconclusive: 63.1 µM [inhibitor, partial curve, poor fit] | –
Cc1ccc2c(-c3ccc(NC4CC4)nn3)cccc2n1 | – | inactive: -0.736%
C=CCCCOc1ccc(/C=C/C(=O)c2ccc(OCCCCC)cc2)cc1 | – | inactive: 0.242%
COc1ccc(CNC(=O)c2ccccc2SCC(=O)NCc2ccco2)cc1 | inconclusive: 3.98 µM [inhibitor, full curve, poor fit] | –
CCCC1=[N+](CC(=O)c2ccc(Br)cc2)CCn2cccc21 | inconclusive: 112 µM [inhibitor, single point] | –
O=C(c1ccncc1)N1CCC2(CCCN(c3ccccn3)C2)CC1 | – | inactive: 7.27% [at 57.4 µM]
OC1(CNc2cc(C(F)(F)F)nc(N3CCCC3)n2)CCCNCC1 (centres undefined) | inconclusive: 10 µM [inhibitor, full curve] | –
Cc1ccc(-c2nnc(-c3cccc4ccccc34)o2)cc1 | – | inactive: -2.9%

Single entries from the list:
For activity change, negative = inhibition, CCCC1OC2C[C@@H]3[C@H]4CCC5=CC(=O)C=C[C@]5(C)[C@H]4C(O)C[C@]3(C)[C@]2(C(=O)CO)O1 (some centres undefined) reads inactive: -36% [at 57.4 µM]
For activity change, negative = inhibition, O=C(NCc1ccc(Cl)cc1)c1c[nH]c2cccnc12 reads inactive: -1.05% [at 12.5 µM]

Next records:

Compound | Potency | activity change, negative = inhibition
O=C(Nc1ccc(N2CCN(Cc3ccccc3)CC2)cc1)c1cnc2ccccc2n1 | inconclusive: 50.1 µM [inhibitor, partial curve, poor fit] | –
Cc1ccsc1CNC(=O)c1ccccn1 | inconclusive: 20 µM [inhibitor, partial curve, poor fit] | –
Cc1ccc(N2CCN(C(=O)Nc3cccc([N+](=O)[O-])c3)CC2C)cc1 (centres undefined) | – | inactive: -0.625%
Cc1cc(C)cc(NS(=O)(=O)c2ccc3c(c2)NC(=O)C(C)S3)c1 (centres undefined) | – | inactive: -9.31%
CCOC(=O)c1cc2c(nc1NC(=S)NCc1ccccc1)CCCC2 | – | inactive: 5.28%
COc1ccc(C(=O)NC(=S)Nc2ccc(Cl)c(C(=O)O)c2)cc1 | active: 7.08 µM | –
COCCn1c(SCC(=O)NCc2ccc3c(c2)OCO3)nnc1C(C)C | – | inactive: 8.24%
COc1ccc(C(Nc2cccc([N+](=O)[O-])c2)P(=O)(OC(C)C)OC(C)C)cc1 (centres undefined) | – | inactive: 0%
Cc1cc(CSCC(=O)Nc2ccc(C(F)(F)F)cc2)no1 | – | inactive: 2.12%
CCN(CC)c1ccc(N=Cc2c3ccccc3cc3ccccc23)cc1 | inconclusive: 44.7 µM [inhibitor, partial curve, poor fit] | –
O=C(N/N=C/c1coc2ccc(Cl)cc2c1=O)c1cc(O)cc(O)c1 | active: 44.7 µM | –
Cc1ccc(C(=O)NCc2ccco2)cc1S(=O)(=O)N1CCCC1 | inconclusive: 50.1 µM [inhibitor, partial curve, poor fit] | –
Clc1cccc(-c2ccc(CNCc3ccccn3)o2)c1 | – | inactive: -2.96%
NC(=O)C(Oc1cc(Cl)ccc1Cl)c1ccc(F)cc1 (centres undefined) | inconclusive: 70.8 µM [inhibitor, partial curve, poor fit] | –
CN(C)S(=O)(=O)c1ccc(N2CCCCC2)c(C(=O)OC(C(=O)NC2CC2)c2ccccc2)c1 (centres undefined) | inconclusive: 141 µM [inhibitor, partial curve, poor fit] | –
COc1ccc(CN(C(=O)c2ccco2)c2ccccc2)cc1 | – | inactive: 1.01%
CCCCC(=O)NC(=S)Nc1cccc(Cl)c1N1CCCCC1 | active: 35.5 µM | –
CCN(CC)CCCN(C(=O)c1cccc(C)c1)c1nc(-c2ccc(OC)cc2)cs1 | inconclusive: 56.2 µM [inhibitor, partial curve, poor fit] | –
COc1ccc(CNC(=O)C2CC(c3ccccc3C(F)(F)F)=NO2)cc1 (centres undefined) | inconclusive: 11.2 µM [inhibitor, full curve, poor fit] | –
CN(C)CCCn1c2c(c(SCC(=O)Nc3ccc4c(c3)OCCO4)nc1=O)CCCC2 | inconclusive: 44.7 µM [inhibitor, partial curve, poor fit] | –
